No constants are given. Whether binding was seen depends on the method and setting. Binding seen in cells or lysates may run through a third protein. For some of these results: Binding calls can cover weak binding; strength is not graded here. Sequences can lack the tags named with a protein.
What was measured:
Experiment in all cases: pull-down; called coimmunoprecipitation by the paper; His-tagged protein as bait on Ni2+ resin, FLAG-tagged protein passed through; washes with 20 and 40 mM imidazole, elution with 250 mM imidazole; Western blot with anti-His and anti-FLAG; 'purified protein samples'; both purified
UvrA-6His (E. coli) = target: T1, UvrA-6His (E. coli) (UniProt P0A698)
T1 sequence: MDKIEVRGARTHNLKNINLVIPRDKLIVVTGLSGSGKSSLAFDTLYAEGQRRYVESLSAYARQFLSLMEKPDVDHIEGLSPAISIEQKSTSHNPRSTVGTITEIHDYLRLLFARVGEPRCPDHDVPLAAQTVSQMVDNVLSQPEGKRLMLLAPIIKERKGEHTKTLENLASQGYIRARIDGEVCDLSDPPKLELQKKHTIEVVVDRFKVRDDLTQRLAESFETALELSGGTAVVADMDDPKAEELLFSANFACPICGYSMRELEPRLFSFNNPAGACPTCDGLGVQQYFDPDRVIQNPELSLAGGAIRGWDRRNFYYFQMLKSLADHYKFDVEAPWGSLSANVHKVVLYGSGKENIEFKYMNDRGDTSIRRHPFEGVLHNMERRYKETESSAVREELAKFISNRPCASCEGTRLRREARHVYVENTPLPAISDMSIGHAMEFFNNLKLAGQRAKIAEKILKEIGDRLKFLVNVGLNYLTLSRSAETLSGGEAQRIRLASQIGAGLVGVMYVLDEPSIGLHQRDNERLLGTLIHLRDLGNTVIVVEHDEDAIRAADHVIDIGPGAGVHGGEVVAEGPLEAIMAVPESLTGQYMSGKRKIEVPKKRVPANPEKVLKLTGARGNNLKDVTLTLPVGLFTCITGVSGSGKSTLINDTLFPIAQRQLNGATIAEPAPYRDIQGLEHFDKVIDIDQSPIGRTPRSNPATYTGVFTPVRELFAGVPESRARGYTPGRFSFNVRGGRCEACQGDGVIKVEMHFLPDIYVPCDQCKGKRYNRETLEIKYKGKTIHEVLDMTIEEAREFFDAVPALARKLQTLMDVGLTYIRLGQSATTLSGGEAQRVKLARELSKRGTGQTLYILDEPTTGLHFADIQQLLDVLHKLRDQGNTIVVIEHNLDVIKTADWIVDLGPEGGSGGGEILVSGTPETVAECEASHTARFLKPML

[1] = target: M1-23-6His (Pectobacterium bacteriophage ΦM1)
[2] = target: M1-O-23-6His (Pectobacterium bacteriophage ΦM1 (escape mutant ΦM1-O))

M1-23-FLAG (Pectobacterium bacteriophage ΦM1)
binding (UvrA-6His (E. coli)): binds

M1-O-23FLAG
binding (UvrA-6His (E. coli)): no binding

B1: UvrA-FLAG (enzyme, UniProt P0A698 1-940)
chain: MDKIEVRGARTHNLKNINLVIPRDKLIVVTGLSGSGKSSLAFDTLYAEGQRRYVESLSAYARQFLSLMEKPDVDHIEGLSPAISIEQKSTSHNPRSTVGTITEIHDYLRLLFARVGEPRCPDHDVPLAAQTVSQMVDNVLSQPEGKRLMLLAPIIKERKGEHTKTLENLASQGYIRARIDGEVCDLSDPPKLELQKKHTIEVVVDRFKVRDDLTQRLAESFETALELSGGTAVVADMDDPKAEELLFSANFACPICGYSMRELEPRLFSFNNPAGACPTCDGLGVQQYFDPDRVIQNPELSLAGGAIRGWDRRNFYYFQMLKSLADHYKFDVEAPWGSLSANVHKVVLYGSGKENIEFKYMNDRGDTSIRRHPFEGVLHNMERRYKETESSAVREELAKFISNRPCASCEGTRLRREARHVYVENTPLPAISDMSIGHAMEFFNNLKLAGQRAKIAEKILKEIGDRLKFLVNVGLNYLTLSRSAETLSGGEAQRIRLASQIGAGLVGVMYVLDEPSIGLHQRDNERLLGTLIHLRDLGNTVIVVEHDEDAIRAADHVIDIGPGAGVHGGEVVAEGPLEAIMAVPESLTGQYMSGKRKIEVPKKRVPANPEKVLKLTGARGNNLKDVTLTLPVGLFTCITGVSGSGKSTLINDTLFPIAQRQLNGATIAEPAPYRDIQGLEHFDKVIDIDQSPIGRTPRSNPATYTGVFTPVRELFAGVPESRARGYTPGRFSFNVRGGRCEACQGDGVIKVEMHFLPDIYVPCDQCKGKRYNRETLEIKYKGKTIHEVLDMTIEEAREFFDAVPALARKLQTLMDVGLTYIRLGQSATTLSGGEAQRVKLARELSKRGTGQTLYILDEPTTGLHFADIQQLLDVLHKLRDQGNTIVVIEHNLDVIKTADWIVDLGPEGGSGGGEILVSGTPETVAECEASHTARFLKPML
binding [1]: binds | binding [2]: no binding

Source: publication PMC5377504
